# Test results reported in article PMC9569474.
# By UniProt entry, the sequences of proteins in these tests, tags left out. Residues count along the entry.
# UniProt B5DFG1, residues 78-580: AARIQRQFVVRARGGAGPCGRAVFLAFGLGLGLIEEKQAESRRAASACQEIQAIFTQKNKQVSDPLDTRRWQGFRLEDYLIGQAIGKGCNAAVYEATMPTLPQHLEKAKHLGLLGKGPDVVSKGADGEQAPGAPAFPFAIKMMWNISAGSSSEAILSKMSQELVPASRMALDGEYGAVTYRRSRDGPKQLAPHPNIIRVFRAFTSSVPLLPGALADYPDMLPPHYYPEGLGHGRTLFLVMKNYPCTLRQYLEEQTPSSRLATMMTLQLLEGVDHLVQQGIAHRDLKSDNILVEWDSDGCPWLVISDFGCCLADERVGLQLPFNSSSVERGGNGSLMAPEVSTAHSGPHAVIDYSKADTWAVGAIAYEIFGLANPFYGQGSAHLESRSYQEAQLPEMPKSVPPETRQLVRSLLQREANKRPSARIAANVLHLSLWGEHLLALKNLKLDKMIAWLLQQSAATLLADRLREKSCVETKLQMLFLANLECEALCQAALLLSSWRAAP
# Results are given in words; binding and its absence hold for the method and conditions named. In cells and extracts the contact can be indirect. Some results given as binding are weak or reduced against the parent protein; the word gives no strength. Tags and fused reporters may be left off the sequences shown.
# B1: Mitofusin2 (MFN2) (protein, UniProt Q8R500 1-757)
# chain: MSLLFSRCNSIVTVKKDKRHMAEVNASPLKHFVTAKKKINGIFEQLGAYIQESAGFLEDTHRNTELDPVTTEEQVLDVKGYLSKVRGISEVLARRHMKVAFFGRTSNGKSTVINAMLWDKVLPSGIGHTTNCFLRVGGTDGHEAFLLTEGSEEKKSVKTVNQLAHALHQDEQLHAGSLVSVMWPNSKCPLLKDGLVLMDSPGIDVTTELDSWIDKFCLDADVFVLVANSESTLMQTEKQFFHKVSERLSRPNIFILNNRWDASASEPEYMEEVRRQHMERCTSFLVDELGVVDRAQAGDRIFFVSAKEVLSARVQKAQGMPEGGGALAEGFQVRMFEFQNFERRFEECISQSAVKTKFEQHTVRAKQIAEAVRLIMDSLHIAAQEQRVYCLEMREERQDRLRFIDKQLELLAQDYKLRIKQMTEEVERQVSTAMAEEIRRLSVLVDEYQMDFHPSPVVLKVYKNELHRHIEEGLGRNMSDRCSTAIASSLQTMQQDMIDGLKPLLPVSVRNQIDMLVPRQCFSLSYDLNCDKLCADFQEDIEFHFSLGWTMLVNRFLGPKNSRRALLGYNDQVQRPLPLTPANPSMPPLPQGSLTQEELMVSMVTGLASLTSRTSMGILVVGGVVWKAVGWRLIALSFGLYGLLYVYERLTWTTRAKERAFKRQFVEYASEKLQLIISYTGSNCSHQVQQELSGTFAHLCQQVDITRDNLEQEIAAMNKKVEALDSLQSKAKLLRNKAGWLDSELNMFIHQYLQPSR
# Biological target: PTEN-induced putative kinase 1 (PINK1) (rat (endogenous in PC12)) (UniProt B5DFG1)
# Assay: co-IP; PC12 cells treated with graded PbAc; lysis in 50 mM Tris-HCl, 150 mM NaCl, 1% Triton X, 2 mM EGTA, 1 mM MgCl2, 10% glycerol, NEM, MG132; anti-PINK1 on protein A agarose, overnight at 4 °C; beads without antibody as negative control; western blot for MFN2
binder,measurement,value
B1,binding,binds
